PubChem BioAssay AID1259254, NCATS – 2017
The whole screen tested about 59,000 reagents; shown is an unselected part. About 1,550 of all reagents (2.6%) count as active. 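G2 share is only a proxy for re-replication; each gene was hit by three separate siRNAs, and active genes were retested.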 Reagents against one gene are numbered here. Not all columns of the deposit are shown. Not given: the amount of reagent.

- Purpose: 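Gene knock-downs that lead to re-replication, shown by excess G2 DNA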 (primary screen)
- Cells: human HCT116 colorectal cancer cells
- Reagents: single siRNA against human genes
- Time to read-out: 3 days
- Read-out: 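Nuclei stained with Hoechst and imaged; cell-cycle phase assigned by DNA content; G2 share scaled per plate, non-targeting siRNA 0%, GMNN siRNA 100%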
- Reading the numbers: G2 robust z-score: higher = more G2 cells, more excess DNA replication
- Call rule: 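An siRNA counts as active if its G2 robust z-score lies at least 5 MADs above the screen median; here such calls match roughly 38% of GMNN control or more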

The first 6 entries as a preview:
no.	gene	reagent	G2 robust z-score	Outcome
1	FRMPD3	1	0.0814	inactive
2	FRMPD3	2	-0.541	inactive
3	FRMPD3	3	-0.518	inactive
4	SUGP1	1	-0.491	inactive
5	SUGP1	2	0.467	inactive
6	SUGP1	3	-0.704	inactive

Main list, from the start:
no.	gene	reagent	G2 robust z-score	Outcome
1	FRMPD3	1	0.0814	inactive
2	FRMPD3	2	-0.541	inactive
3	FRMPD3	3	-0.518	inactive
4	SUGP1	1	-0.491	inactive
5	SUGP1	2	0.467	inactive
6	SUGP1	3	-0.704	inactive
7	OBSCN	1	0.465	inactive
8	OBSCN	2	0.837	inactive
9	OBSCN	3	1.23	inactive
10	OBSCN	4	0.17	inactive
11	OBSCN	5	1.05	inactive
12	OBSCN	6	-0.802	inactive
13	GRIPAP1	1	1.28	inactive
14	GRIPAP1	2	2.58	inactive
15	GRIPAP1	3	-0.413	inactive
16	MRGPRE	1	0.46	inactive
17	MRGPRE	2	2.91	inactive
18	MRGPRE	3	0.972	inactive
19	TRIM50	1	-0.883	inactive
20	TRIM50	2	1.59	inactive
21	TRIM50	3	5.83	active
22	ODC1	1	2.07	inactive
23	ODC1	2	2.45	inactive
24	ODC1	3	-0.256	inactive
25	ACKR5	1	2.21	inactive
26	ACKR5	2	0.607	inactive
27	ACKR5	3	0.108	inactive
28	LBP	1	-0.356	inactive
29	LBP	2	-0.332	inactive
30	LBP	3	3.19	inactive
31	HCG22	1	-0.466	inactive
32	HCG22	2	1.3	inactive
33	HCG22	3	0.466	inactive
34	OR2K2	1	-0.463	inactive
35	OR2K2	2	-0.0534	inactive
36	OR2K2	3	-0.0741	inactive
37	SIX1	1	-0.953	inactive
38	SIX1	2	1.34	inactive
39	SIX1	3	-1.21	inactive
40	IFNA2	1	-0.824	inactive
41	IFNA2	2	1.86	inactive
42	IFNA2	3	1.25	inactive
43	SPRY3	1	-0.958	inactive
44	SPRY3	2	0.0552	inactive
45	SPRY3	3	-1.16	inactive
46	ZNF786	1	0.0878	inactive
47	ZNF786	2	0.348	inactive
48	ZNF786	3	0.589	inactive
49	BRD4	1	2.03	inactive
50	BRD4	2	1.92	inactive
51	BRD4	3	2.63	inactive
52	STOX2	1	0.321	inactive
53	STOX2	2	-0.686	inactive
54	STOX2	3	0.752	inactive
55	BCL9	1	1.84	inactive
56	BCL9	2	1.25	inactive
57	BCL9	3	1.63	inactive
58	MUC17	1	3.02	inactive
59	MUC17	2	0.827	inactive
60	MUC17	3	0.636	inactive
61	ZKSCAN3	1	0.261	inactive
62	ZKSCAN3	2	-0.442	inactive
63	ZKSCAN3	3	-0.545	inactive
64	ZNF138	1	-0.988	inactive
65	ZNF138	2	-0.282	inactive
66	ZNF138	3	1.58	inactive
67	PIK3R6	1	3.21	inactive
68	PIK3R6	2	0.502	inactive
69	PIK3R6	3	-0.696	inactive
70	P2RX5	1	-0.0133	inactive
71	P2RX5	2	-0.633	inactive
72	P2RX5	3	0.681	inactive
73	FADS2	1	-0.202	inactive
74	FADS2	2	-0.544	inactive
75	FADS2	3	-0.835	inactive
76	ASL	1	2.54	inactive
77	ASL	2	-1.38	inactive
78	ASL	3	-0.909	inactive
79	XDH	1	2.47	inactive
80	XDH	2	7.08	active
81	XDH	3	2.48	inactive
82	RPUSD1	1	-1.32	inactive
83	RPUSD1	2	-0.0482	inactive
84	RPUSD1	3	-0.608	inactive
85	ANKRD37	1	-0.013	inactive
86	ANKRD37	2	-0.673	inactive
87	ANKRD37	3	0.578	inactive
